Measurements reported in US20180072806A1 (SHIRE HUMAN GENETIC THERAPIES, published 2018).
Where a chain is given by its changes, count along the chain named. These are yes or no findings as the source states them, for the method shown. Some results given as binding are weak or reduced against the parent protein; the word gives no strength.

The chains behind the UniProt entries cited, without tags or fusion partners. Where a name states a change or a piece, a line headed by the entry shows the natural chain unless it says otherwise.
UniProt P17948: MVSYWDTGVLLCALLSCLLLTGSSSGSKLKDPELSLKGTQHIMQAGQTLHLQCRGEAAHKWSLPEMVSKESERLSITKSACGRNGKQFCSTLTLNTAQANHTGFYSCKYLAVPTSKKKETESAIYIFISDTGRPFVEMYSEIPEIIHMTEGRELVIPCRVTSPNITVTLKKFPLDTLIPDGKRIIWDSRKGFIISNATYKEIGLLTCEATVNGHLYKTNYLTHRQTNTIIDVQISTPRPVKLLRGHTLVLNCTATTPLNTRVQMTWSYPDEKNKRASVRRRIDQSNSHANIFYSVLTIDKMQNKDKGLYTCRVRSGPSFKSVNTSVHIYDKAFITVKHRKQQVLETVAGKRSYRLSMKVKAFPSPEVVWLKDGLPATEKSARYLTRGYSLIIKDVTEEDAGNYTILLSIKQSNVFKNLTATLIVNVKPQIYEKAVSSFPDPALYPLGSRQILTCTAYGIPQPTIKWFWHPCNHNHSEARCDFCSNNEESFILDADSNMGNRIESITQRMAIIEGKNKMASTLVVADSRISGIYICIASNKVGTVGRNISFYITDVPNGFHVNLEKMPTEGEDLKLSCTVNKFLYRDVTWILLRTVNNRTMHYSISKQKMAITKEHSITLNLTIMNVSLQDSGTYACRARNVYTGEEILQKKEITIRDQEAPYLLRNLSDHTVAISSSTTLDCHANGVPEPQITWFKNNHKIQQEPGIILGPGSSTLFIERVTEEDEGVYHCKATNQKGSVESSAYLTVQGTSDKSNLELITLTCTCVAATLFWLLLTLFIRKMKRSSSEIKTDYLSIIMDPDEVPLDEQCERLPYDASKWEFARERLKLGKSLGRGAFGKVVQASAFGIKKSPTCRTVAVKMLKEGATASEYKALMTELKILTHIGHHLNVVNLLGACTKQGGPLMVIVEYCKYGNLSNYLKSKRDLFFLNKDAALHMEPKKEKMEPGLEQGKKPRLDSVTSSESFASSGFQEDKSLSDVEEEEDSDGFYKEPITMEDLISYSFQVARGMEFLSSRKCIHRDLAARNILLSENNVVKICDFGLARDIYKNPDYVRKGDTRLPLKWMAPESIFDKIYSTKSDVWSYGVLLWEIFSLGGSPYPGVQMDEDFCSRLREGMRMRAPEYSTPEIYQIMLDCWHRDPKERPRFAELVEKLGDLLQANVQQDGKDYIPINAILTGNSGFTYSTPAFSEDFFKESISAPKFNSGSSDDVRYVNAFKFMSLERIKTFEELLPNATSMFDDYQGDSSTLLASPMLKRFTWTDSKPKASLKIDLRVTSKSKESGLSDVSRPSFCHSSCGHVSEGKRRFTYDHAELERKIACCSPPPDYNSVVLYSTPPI

Tests used:
[1] = target: T1, recombinant human soluble Flt-1 (human, UniProt P17948 27-758); assay: size exclusion chromatography of the mixture
T1 construct: Recombinant soluble form (immunogen bought from ABCAM); also called human sFlt-1; sFlt-1

[2] = target: T1, recombinant human soluble Flt-1; assay: human competition ELISA with human sFlt-1 and VEGF; blocked ligand VEGF; antibody titrated
[3] = target: T1, recombinant human soluble Flt-1; assay: VEGF:sFlt1 binding assay (competition ELISA); blocked ligand VEGF; antibody titrated

B1: anti-Flt-1 antibody 21B3 (antibody, V domains shown)
VH: ELQLVESGGGLVQPGGSLRLSCAASGFTFRDYSMSWVRQAPGKGLEWVSAISWNGDSTYYAESMKGRFTISRDNAKNTLYLQMNSLKSEDTAVYYCAKSWATPIESLYYYGMDYWGKGTLVTVSS
VL: SYELTQSPSVSVALRQTAKITCGGNNIGSQTAQWYQQKPGQAPVLVIYANNRRPSGIPERFSGSKSGNTATLTISGAQAEDEADYYCQVWDGSTQAIVFGGGTHLTVL
notes: VL is LC_21B3; IgG with wild-type Fc; also called 21B3 WT; clone 21B3
- binding [1]: binds
- binding [2]: binds

B2: anti-Flt-1 antibody 27H9 (antibody, human IgG1, lambda, V domains shown)
VH: B1 VH with L2V, V5L, M64A, A75S, K87R, S88A, M112S, K117Q
VL: SYELTQPLSVSVALRQTARITCGGNNIGSQTAQWYQQKPGQAPVLVIYANNRRPSGIPERFSGSKSGNTATLTISRAQAEDEADYYCQVWDESTQAIVFGGGTKLTVLG
notes: also called 27H9 WT; 27H9 WT 23/07
- binding [3]: binds

B3: anti-Flt-1 antibody 27H4 (antibody, human IgG1, lambda, V domains shown)
VH: B1 VH with M64L, K87R, S88A, M112S, K117Q
VL: B2 VL with R15G, D91E, E92D
- binding [3]: binds

B4: anti-Flt-1 antibody 27H6 (antibody, human IgG1, lambda, V domains shown)
VH: B1 VH with R30S, M34A, N54S, M64V, S71F, A75S, K87R, S88A, M112S, K117Q
VL: B2 VL with T17A, R19K, E80G, E92G
- binding [3]: binds
